# Laboratory results: the supplement of paper PMC4604168 (melanoma cell lines)
# Some of the results follow. Single values are uncertain, as repeats are few or missing.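 The apoptosis fraction was the count of cleaved-PARP antibody-stained nuclei relative to all DNA-stained nuclei, imaged in 1,536-well plates. Screening doses were set so most cells survived, and baseline and induced cleaved-PARP levels vary greatly across cell lines.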
# Assays:
# Experiment in all cases: cleaved PARP positive nuclei fraction relative to DMSO control; melanoma cells; higher = more apoptosis
# Details in all cases: library dose: low library concentration; 72 h
# MZ2-MEL = system: MZ2-MEL
# MeWo = system: MeWo
# RPMI7951 = system: RPMI7951
# RVH-421 = system: RVH-421
# SkMel28 = system: SkMel28
# SkMel30 = system: SkMel30
# SkMel5 = system: SkMel5
# UACC257 = system: UACC257
# UACC62 = system: UACC62
# WM115 = system: WM115
# WM1716 = system: WM1716
# WM1745 = system: WM1745
# WM3526 = system: WM3526
# WM3619 = system: WM3619
# WM451Lu = system: WM451Lu
Structure (SMILES),cleaved PARP positive nuclei fraction (MZ2-MEL),cleaved PARP positive nuclei fraction (MeWo),cleaved PARP positive nuclei fraction (RPMI7951),cleaved PARP positive nuclei fraction (RVH-421),cleaved PARP positive nuclei fraction (SkMel28),cleaved PARP positive nuclei fraction (SkMel30),cleaved PARP positive nuclei fraction (SkMel5),cleaved PARP positive nuclei fraction (UACC257),cleaved PARP positive nuclei fraction (UACC62),cleaved PARP positive nuclei fraction (WM115),cleaved PARP positive nuclei fraction (WM1716),cleaved PARP positive nuclei fraction (WM1745),cleaved PARP positive nuclei fraction (WM3526),cleaved PARP positive nuclei fraction (WM3619),cleaved PARP positive nuclei fraction (WM451Lu)
"COc1cc(Nc2ncc(F)c(Nc3ccc4c(n3)NC(=O)C(C)(C)O4)n2)cc(OC)c1OC [Tamatinib] + Oc1nc(-c2ccc(C(F)(F)F)cc2)nc2c1CSCC2 [XAV939] (first compound 0.4 µM, partner dose 2 µM)",288%,52.8%,106%,61.9%,132%,25.6%,144%,114%,172%,56.7%,147%,164%,68.2%,102%,44.9%
"C[C@]1(c2nc3c(C(N)=O)cccc3[nH]2)CCCN1 [Veliparib] + COC(=O)c1sccc1S(=O)(=O)Nc1ccc(Nc2ccccc2)cc1OC [GSK0660] (first compound 1.4 µM, partner dose 1 µM)",139%,231%,70.2%,103%,131%,132%,255%,261%,125%,536%,84.8%,105%,58%,75.2%,128%
"CO[C@@H]1[C@H](N(C)C(=O)c2ccccc2)C[C@H]2O[C@]1(C)n1c3ccccc3c3c4c(c5c6ccccc6n2c5c31)C(=O)NC4 [Midostaurin] + Cn1cc(/C=C2\C(=O)Nc3cccnc32)c2ccccc21 [GW441756] (first compound 0.08 µM, partner dose 0.4 µM)",123%,269%,58.7%,180%,98.6%,49%,104%,189%,167%,97.2%,166%,128%,60.4%,89.4%,120%
"COCC[n+]1c2c(n(Cc3cnccn3)c1C)C(=O)c1ccccc1C2=O + CCc1ccc(CCOc2ccc(CC3SC(=O)NC3=O)cc2)nc1 [pioglitazone] (first compound 0.0004 µM, partner dose 2 µM)",154%,108%,103%,97.8%,127%,23.6%,209%,61.3%,93.6%,197%,117%,90.5%,64.2%,70.2%,667%
"C[C@]1(c2nc3c(C(N)=O)cccc3[nH]2)CCCN1 [Veliparib] + c1cc(-c2cnn3cc(-c4ccc(OCCN5CCCCC5)cc4)cnc23)ccn1 [Dorsomorphin] (first compound 1.4 µM, partner dose 0.4 µM)",178%,27.1%,100%,66.4%,174%,28.2%,63.6%,132%,42.1%,207%,112%,120%,144%,80.9%,32.1%
"O=C(Nc1cccc(Cl)c1)Nc1ncc(CCNc2ncnc3ccsc23)s1 + Cn1cc(/C=C2\C(=O)Nc3cccnc32)c2ccccc21 [GW441756] (first compound 0.0008 µM, partner dose 0.4 µM)",28.7%,35.9%,35.8%,24.8%,162%,21.9%,95.7%,32%,28.9%,52.9%,74.2%,102%,60.3%,84.5%,106%
"CC(C)(C)c1cnc(CSc2cnc(NC(=O)C3CCNCC3)s2)o1 + COc1ccc(-c2ccc3c(N4CCOCC4)nc(N4C[C@@H](C)O[C@@H](C)C4)nc3n2)cc1CO [KU0063794] (first compound 0.01 µM, partner dose 0.02 µM)",196%,114%,90.2%,78%,73.4%,184%,28.1%,48.5%,180%,164%,117%,110%,69.3%,126%,72.5%
"O=C(CCCCCCC(=O)Nc1ccccc1)NO [vorinostat] + CC(C)CCN1c2nc(Nc3cc(F)c(O)c(F)c3)ncc2N(C)C(=O)C1C [BID1870] (first compound 0.08 µM, partner dose 0.2 µM)",147%,64%,80.5%,42.3%,152%,41.4%,68.7%,103%,130%,30.4%,49.6%,98.1%,76.9%,90.1%,703%
"CC1(C)NC(=O)N(c2ccc([N+](=O)[O-])c(C(F)(F)F)c2)C1=O [nilutamide] + COc1ccc(COc2ccc(Cc3cnc(N)nc3N)cc2OC)cc1 [GW2580] (first compound 1 µM, partner dose 1 µM)",86.1%,50.6%,87.1%,75.6%,273%,48.5%,113%,79.3%,68.3%,123%,85.5%,111%,176%,102%,55.8%
"CC(C)(C)c1cnc(CSc2cnc(NC(=O)C3CCNCC3)s2)o1 + CCCCCCCCCCCC1=C(O)C(=O)C=C(O)C1=O [Embelin] (first compound 0.01 µM, partner dose 1.2 µM)",57.2%,51.2%,86.8%,41.2%,118%,17.4%,97.4%,90.7%,350%,149%,48.6%,113%,120%,68.6%,47%
"COCC[n+]1c2c(n(Cc3cnccn3)c1C)C(=O)c1ccccc1C2=O + CCN(CC)CCCCNc1ncc2cc(-c3cc(OC)cc(OC)c3)c(NC(=O)NC(C)(C)C)nc2n1 [PD173074] (first compound 0.0004 µM, partner dose 0.1 µM)",144%,123%,55.3%,53.6%,85.8%,23.4%,118%,59.2%,40.4%,36.6%,101%,109%,60.4%,93.2%,38.5%
"C#Cc1cccc(Nc2ncnc3cc(OCCOC)c(OCCOC)cc23)c1 [erlotinib] + Cc1cc([N+](=O)[O-])ccc1NS(=O)(=O)c1cc(Cl)ccc1Cl [FH535] (first compound 0.8 µM, partner dose 1 µM)",68.8%,115%,50.5%,60.7%,164%,28.3%,60.6%,176%,130%,180%,98.8%,109%,74.4%,78%,62.5%
"O=C(Nc1cccc(Cl)c1)Nc1ncc(CCNc2ncnc3ccsc23)s1 + O=S(=O)(c1ccccc1)N(CC(F)(F)F)c1ccc(C(O)(C(F)(F)F)C(F)(F)F)cc1 [T0901317] (first compound 0.0008 µM, partner dose 1.4 µM)",123%,56.7%,96.1%,141%,125%,230%,66.7%,210%,174%,160%,60.8%,113%,76.5%,88.8%,145%
"C#Cc1cccc(Nc2ncnc3cc(OCCOC)c(OCCOC)cc23)c1 [erlotinib] + COc1cc(N2CCC(N3CCN(C)CC3)CC2)ccc1Nc1ncc(Cl)c(Nc2ccccc2S(=O)(=O)C(C)C)n1 [NVP-TAE684] (first compound 0.8 µM, partner dose 0.08 µM)",201%,338%,75.9%,63.7%,165%,24.7%,41.8%,136%,166%,50.1%,64.8%,139%,91.7%,80.4%,131%
"OCCn1cc(-c2cnc3nnn(Cc4ccc5ncccc5c4)c3n2)cn1 + O=S(=O)(c1ccccc1)N(CC(F)(F)F)c1ccc(C(O)(C(F)(F)F)C(F)(F)F)cc1 [T0901317] (first compound 1 µM, partner dose 1.4 µM)",149%,56.8%,76.8%,43.4%,120%,237%,63.6%,201%,42.2%,143%,18.7%,116%,62.1%,196%,113%
"Cc1ccc(NC(=O)c2cccc(N(C)C)c2)cc1NC(=O)c1ccc(O)cc1 + N#Cc1c(O)c2c(-c3ccc(-c4ccccc4O)cc3)csc2[nH]c1=O [A769662] (first compound 2 µM, partner dose 2 µM)",124%,120%,287%,51.6%,69.6%,33.1%,63.2%,58.9%,122%,89%,113%,106%,44%,87.8%,316%
"C[C@]1(c2nc3c(C(N)=O)cccc3[nH]2)CCCN1 [Veliparib] + COc1ccc(COc2ccc(Cc3cnc(N)nc3N)cc2OC)cc1 [GW2580] (first compound 1.4 µM, partner dose 1 µM)",169%,28.2%,94.7%,93.8%,150%,39.7%,27.8%,94%,44.5%,102%,102%,120%,130%,91.1%,105%
"C[C@@H]1CCN(C(=O)CC#N)C[C@@H]1N(C)c1ncnc2[nH]ccc12 + O=C(O)C(=O)Nc1sc2c(c1C(=O)O)CCNC2 [TCS401] (first compound 1 µM, partner dose 1.66667 µM)",55.3%,53.9%,81.4%,90%,108%,27.5%,68.1%,102%,77.3%,73.5%,89.9%,102%,59.2%,75.7%,57.8%
"NC(=O)Nc1cc(-c2cccc(F)c2)sc1C(=O)N[C@H]1CCCNC1 + c1cc(-c2cnn3cc(-c4ccc(OCCN5CCCCC5)cc4)cnc23)ccn1 [Dorsomorphin] (first compound 0.02 µM, partner dose 0.4 µM)",70.1%,89.7%,53%,25.8%,130%,18.7%,30.9%,73.9%,40.8%,148%,70.2%,113%,84.5%,151%,99.3%
"Cn1c(Nc2ccc(C(F)(F)F)cc2)nc2cc(Oc3ccnc(-c4ncc(C(F)(F)F)[nH]4)c3)ccc21 + COC(=O)c1sccc1S(=O)(=O)Nc1ccc(Nc2ccccc2)cc1OC [GSK0660] (first compound 0.08 µM, partner dose 1 µM)",96.8%,204%,108%,217%,282%,159%,159%,1350%,303%,1300%,237%,155%,151%,225%,148%

# Full records from above. Order of values: cleaved PARP positive nuclei fraction (MZ2-MEL) | cleaved PARP positive nuclei fraction (MeWo) | cleaved PARP positive nuclei fraction (RPMI7951) | cleaved PARP positive nuclei fraction (RVH-421) | cleaved PARP positive nuclei fraction (SkMel28) | cleaved PARP positive nuclei fraction (SkMel30) | cleaved PARP positive nuclei fraction (SkMel5) | cleaved PARP positive nuclei fraction (UACC257) | cleaved PARP positive nuclei fraction (UACC62) | cleaved PARP positive nuclei fraction (WM115) | cleaved PARP positive nuclei fraction (WM1716) | cleaved PARP positive nuclei fraction (WM1745) | cleaved PARP positive nuclei fraction (WM3526) | cleaved PARP positive nuclei fraction (WM3619) | cleaved PARP positive nuclei fraction (WM451Lu)
# Cc1ccc(NC(=O)c2cccc(N(C)C)c2)cc1NC(=O)c1ccc(O)cc1 + N#Cc1c(O)c2c(-c3ccc(-c4ccccc4O)cc3)csc2[nH]c1=O [A769662] (first compound 2 µM, partner dose 2 µM) in the list: 124% | 120% | 287% | 51.6% | 69.6% | 33.1% | 63.2% | 58.9% | 122% | 89% | 113% | 106% | 44% | 87.8% | 316%
# CO[C@@H]1[C@H](N(C)C(=O)c2ccccc2)C[C@H]2O[C@]1(C)n1c3ccccc3c3c4c(c5c6ccccc6n2c5c31)C(=O)NC4 [Midostaurin] + Cn1cc(/C=C2\C(=O)Nc3cccnc32)c2ccccc21 [GW441756] (first compound 0.08 µM, partner dose 0.4 µM) in the list: 123% | 269% | 58.7% | 180% | 98.6% | 49% | 104% | 189% | 167% | 97.2% | 166% | 128% | 60.4% | 89.4% | 120%
